Reference: PubChem BioAssay AID493014 (National Center for Advancing Translational Sciences (NCATS), 2011)
Some of the results follow. Further columns of the screen follow, without active or inactive calls. The list favours compounds with an active or inconclusive main result. Words in brackets tell the shape of the fitted curve; partial curves, single points and poor fits give uncertain potencies.

Assay: qHTS Assay to Find Inhibitors of Chronic Active B-Cell Receptor Signaling
Details: ABC-DLBCL IkBa-CBG/CBR reporter, luminescence ratio (green luciferase fused to IkBa over red control in TMD8 lymphoma cells), 4 h
Outline: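 TMD8 human ABC-DLBCL cells with doxycycline-inducible IκBα–green luciferase fusion and unfused red luciferase, in 0.5% FBS medium; compounds up to 46 uM, 4 h at 37C. Green/red luminescence ratio, filter-overlap corrected, fitted to concentration-response curves.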

[1] = measured here: CBR red luminescence, cell number
[2] = measured here: IkBa-CBG green luminescence

In the case of `CCC(C)(C)C1CCC(=NNC(=O)c2ccoc2C)CC1` (centres undefined), the AC50 [1] is reported as 9.2 µM [falling, partial curve].

With `CCC1=NN(C(=O)c2ccc(C)cc2)C(O)(c2ccc(Br)cc2)C1` (centres undefined) the AC50 [1] was 23.1 µM [falling, single point].

For `O=C(Nc1ccccc1)NC1CCCc2ccccc21` (centres undefined), the AC50 [1] was 3.55 µM [falling, partial curve, poor fit].

With `Cc1cc(NC(=O)c2ccc3c(c2)OCCO3)no1` the AC50 [1] was 29.1 µM [falling, single point].

In the case of `Cc1ccccc1C(=O)Nc1nnc(CC(=O)N/N=C/c2cn(Cc3ccccc3)c3ccccc23)s1`, the AC50 [1] is reported as 35.5 µM [falling, single point].

With `FC(F)(Cl)c1nnc2ccc(Cl)nn12` the AC50 [1] was 25.1 µM [falling, single point] and the AC50 [2] was 35.5 µM [falling, single point].

In the case of `CC(N=Cc1cccc(O)c1O)c1ccccc1` (centres undefined), the AC50 [1] is reported as 8.2 µM [rising, partial curve].

With `CN(C)C(=O)CSc1cccc2cccnc12` the AC50 [2] was 18.4 µM [falling, single point].

With `CCN1C(=O)CS/C1=N\S(=O)(=O)c1ccccc1` the AC50 [1] was 0.562 µM [falling, full curve, poor fit].

In the case of `Cc1nc(SCC(=O)NNC(=O)c2cccs2)[nH]c(=O)c1C`, the AC50 [1] is reported as 11.2 µM [falling, partial curve].

With `Cc1ccc(C)c(NC(=O)CSc2nc3nc(-c4cccs4)cc(C(F)(F)F)c3c(=O)[nH]2)c1` the AC50 [1] was 35.5 µM [falling, single point] and the AC50 [2] was 25.1 µM [rising, partial curve, poor fit].

With `O=C(C[n+]1cc(-c2ccc(F)cc2)n2c1CCC2)c1cccs1` the AC50 [1] was 1.26 µM [falling, full curve, poor fit].

With `Cc1[nH]n(C(N)=S)c(=O)c1N=Nc1cc(C(F)(F)F)ccc1Cl` the AC50 [1] was 31.6 µM [rising, single point].

With `Cc1ccccc1NC(=O)c1cc(C(=O)c2cc(Cl)ccc2O)cn(-c2ccccc2C)c1=O` the AC50 [1] was 32.6 µM [falling, single point].

For `COc1ccc(/C=N/Nc2ccc(C(=O)O)cc2)cc1Br`, the AC50 [2] was 1.41 µM [rising, full curve, poor fit].

With `Cc1sc2nc(COC(=O)c3ccc(Cl)c(N)c3)[nH]c(=O)c2c1C` the AC50 [1] was 7.08 µM [falling, partial curve].

In the case of `CC(C)Cc1nnc(NC(=O)c2ccc3c(c2)OCCO3)s1`, the AC50 [1] is reported as 23.1 µM [falling, partial curve].

With `Cc1ccc(NC(=O)CN(C)CC(=O)Nc2ccc(N3CCOCC3)cc2)cc1F` the AC50 [1] was 12.6 µM [falling, partial curve].

For `COc1ccc(C(=O)/C=C(\C)Nc2ccc(NC(C)=O)cc2)cc1`, the AC50 [1] was 15.8 µM [rising, single point].

For `Cc1cc(N2CCOCC2)n2nc(C)c(-c3ccccc3)c2n1`, the AC50 [1] was 7.08 µM [rising, partial curve, poor fit].

In the case of `CCN(CC)c1ccc(/C=C(\C#N)c2ccccn2)cc1`, the AC50 [1] is reported as 6.51 µM [rising, single point] and the AC50 [2] is reported as 16.4 µM [falling, partial curve, poor fit].

In the case of `COc1ccc(-n2c(SCC(=O)O)nnc2-c2ccc(NC(=O)c3ccccc3)cc2)cc1`, the AC50 [1] is reported as 3.16 µM [falling, single point].

In the case of `CC(C)(C)NC(=O)c1cc(F)c(F)cc1Cl`, the AC50 [1] is reported as 6.51 µM [falling, single point].

For `O=C(Nc1cc(Br)ccc1O)c1cc(-c2cccs2)on1`, the AC50 [1] was 7.08 µM [falling, full curve, poor fit].

For `N=c1ccn(Cc2ccccc2Cl)cc1`, the AC50 [1] was 3.66 µM [falling, full curve, poor fit].

For `O=C1COc2ccc(C(=O)COC(=O)Cc3ccccc3F)cc2N1`, the AC50 [1] was 11.2 µM [rising, single point].

For `CC(C)c1cc(O)c(-c2ccccc2)c(=O)n1-c1ccc(Cl)cc1`, the AC50 [1] was 25.1 µM [rising, single point].

For `Cc1cc(C)cc(NC(=O)CSc2nc(N)c(NC(=O)c3cccs3)c(=O)[nH]2)c1`, the AC50 [1] was 29.1 µM [rising, single point].

With `CN(C)CCCSc1ccccc1NC(=O)/C=C/c1ccccc1` the AC50 [1] was 0.316 µM [falling, full curve].

With `CCc1ccccc1Nc1cc(C(=O)NCc2ccccn2)c2ccccc2n1` the AC50 [1] was 4.47 µM [falling, partial curve, poor fit].

For `O=c1oc2ccccc2c(N2CCCCC2)c1CN1CCCCC1`, the AC50 [1] was 1.03 µM [falling, full curve].

With `Cc1ccc(/C=N/NC(=O)CN(Cc2ccccc2)S(=O)(=O)c2ccc3c(c2)OCCO3)cc1` the AC50 [2] was 18.4 µM [falling, partial curve, poor fit].

In the case of `O=[N+]([O-])c1cc(Oc2cccnc2)cc([N+](=O)[O-])c1`, the AC50 [1] is reported as 29.1 µM [rising, single point].

In the case of `COc1cc(SC)ccc1C(=O)N1CCN(Cc2ccc3c(c2)OCO3)CC1`, the AC50 [1] is reported as 20 µM [falling, partial curve, poor fit].

In the case of `O=C(Nn1c(SCc2ccccc2F)nc2ccsc2c1=O)c1ccccc1`, the AC50 [1] is reported as 5.17 µM [rising, full curve, poor fit].

With `Cc1oc2ccc(OCc3ccccc3F)cc2c1C(=O)O` the AC50 [1] was 1.64 µM [rising, full curve, poor fit].

For `CCCn1nnc(NC(=O)c2ccc3ccccc3c2)n1`, the AC50 [1] was 20 µM [falling, single point].

For `COc1ccc(-c2csc(-c3cccnc3)n2)cc1C`, the AC50 [1] was 5.62 µM [rising, partial curve].

With `CSc1ccc(NC(=O)Nc2cccn(Cc3ccccc3F)c2=O)cc1` the AC50 [1] was 12.6 µM [rising, partial curve].

For `COc1ccc(C(=O)O)nc1C`, the AC50 [1] was 35.5 µM [falling, partial curve, poor fit].

With `COC(=O)C1CCN(C(=O)c2oc3c(Cl)cc(C)cc3c2C)CC1` the AC50 [1] was 0.631 µM [rising, partial curve, poor fit].

For `Cc1ccccc1CS(=O)(=O)c1ccc(C(=O)N2CCOCC2)cc1[N+](=O)[O-]`, the AC50 [1] was 2.24 µM [falling, full curve].

With `N/C(=N\OC(=O)Cc1ccccc1[N+](=O)[O-])c1ccncc1` the AC50 [1] was 0.58 µM [rising, full curve, poor fit].

With `C1=C(c2ccccc2)CCN(c2nc3ccccc3n3cnnc23)C1` the AC50 [1] was 18.4 µM [falling, partial curve].

For `CCCCN1CC(=O)N2[C@H]3c4cc(Cl)ccc4OC[C@@H]3[C@H](C(=O)OCC)[C@]2(C)C1=O`, the AC50 [1] was 11.6 µM [falling, partial curve, poor fit].

With `COc1ccc(-c2onc(C)c2-c2ccccc2)c(O)c1` the AC50 [1] was 29.1 µM [rising, single point].

In the case of `COc1ccccc1C(=O)COC(=O)COc1cccc2c1OC(C)(C)C2`, the AC50 [1] is reported as 8.91 µM [rising, partial curve, poor fit].

With `Cc1ccccc1C(=O)NNC(=O)CCc1ccccc1` the AC50 [1] was 11.2 µM [falling, partial curve].

For `COC(=O)c1ccc(OCC(=O)c2ccccc2)cc1`, the AC50 [1] was 5.17 µM [falling, single point].

In the case of `CCc1ccc(OCC(=O)NCC(c2ccc(Cl)cc2)N2CCCCC2)cc1` (centres undefined), the AC50 [1] is reported as 17.8 µM [falling, single point].

For `Cc1ccc2nc(SCC(=O)Nc3cccc([N+](=O)[O-])c3)[nH]c2c1`, the AC50 [1] was 25.1 µM [falling, single point].

For `CCOC(=O)C1(CCOC)CCN(Cc2ccc(C3CCCCO3)s2)CC1` (centres undefined), the AC50 [1] was 3.16 µM [rising, single point].

For `COc1ccc(-c2csc(N(CC(C)C)C(=O)c3ccco3)n2)cc1`, the AC50 [1] was 10 µM [rising, partial curve, poor fit].

For `COc1ccc(C(=O)N2CCCC(c3nc(-c4cccs4)no3)C2)cc1` (centres undefined), the AC50 [1] was 11.2 µM [rising, partial curve, poor fit].

In the case of `Cc1ccc(NC(=O)COc2ccc3c(c2)OCO3)c(Cl)c1`, the AC50 [1] is reported as 20.6 µM [rising, single point].

For `Cc1cc(C)c2c(=O)[nH]c(SCc3ccccc3C)nc2n1`, the AC50 [1] was 4.47 µM [falling, full curve].

With `CC(=O)CC1=NC(C)(C)Cc2ccccc21` the AC50 [1] was 15.8 µM [falling, partial curve, poor fit].

In the case of `Cc1cccc2nc(C(=O)Nc3cccc(C(=O)NC4CC4)c3)cn12`, the AC50 [1] is reported as 1.46 µM [falling, full curve].

With `Cc1ccc(NC(=O)C(C)Sc2nnc3ccccn23)cc1` (centres undefined) the AC50 [1] was 0.0116 µM [rising, full curve].

For `COc1ccc(/C=C2\SC(=O)N(CCC(=O)N3CCCCC3)C2=O)cc1OC`, the AC50 [1] was 20 µM [falling, single point].

For `Cc1sc(NC(=O)c2cccnc2)nc1-c1ccccc1`, the AC50 [1] was 35.5 µM [falling, single point].

For `Fc1ccc(-c2nc3c(-c4ccccc4)cnn3cc2CCN2CCOCC2)cc1`, the AC50 [1] was 7.94 µM [falling, partial curve, poor fit].

With `Cc1ccc(S(=O)(=O)NCCSC(C)(C)C)cc1` the AC50 [1] was 1.84 µM [rising, full curve, poor fit].

With `CCOC(=O)c1cnc2ccccc2c1NCCO` the AC50 [1] was 3.98 µM [falling, full curve, poor fit] and the AC50 [2] was 11.2 µM [rising, partial curve, poor fit].

In the case of `CCCCCCSc1cc(-c2nc3ccc(C)cn3c2NCc2ccccc2)ccc1OC`, the AC50 [1] is reported as 18.4 µM [falling, single point].
